Assay results published in PMC7556403.
Construct, isoform or probe ends are uncertain for at least one entry. For some assays here: At least one verdict rests on a figure or table, not on a statement of the authors.

The chains behind the UniProt entries cited, without tags or fusion partners.
UniProt P41238, whole entry W121Q: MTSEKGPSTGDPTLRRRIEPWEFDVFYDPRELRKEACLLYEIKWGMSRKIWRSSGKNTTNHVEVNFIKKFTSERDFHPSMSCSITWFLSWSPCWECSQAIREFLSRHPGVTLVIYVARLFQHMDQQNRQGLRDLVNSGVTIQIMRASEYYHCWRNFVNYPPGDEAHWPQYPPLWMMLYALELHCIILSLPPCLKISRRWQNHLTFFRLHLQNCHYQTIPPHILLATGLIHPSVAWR
UniProt P41238, whole entry W121A: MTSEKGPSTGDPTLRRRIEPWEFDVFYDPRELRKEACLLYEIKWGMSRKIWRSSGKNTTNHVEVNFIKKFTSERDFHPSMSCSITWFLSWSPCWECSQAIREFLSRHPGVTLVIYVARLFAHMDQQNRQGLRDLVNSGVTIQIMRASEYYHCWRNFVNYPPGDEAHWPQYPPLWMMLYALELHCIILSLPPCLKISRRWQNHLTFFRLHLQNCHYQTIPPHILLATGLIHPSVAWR
UniProt P41238, whole entry F120A: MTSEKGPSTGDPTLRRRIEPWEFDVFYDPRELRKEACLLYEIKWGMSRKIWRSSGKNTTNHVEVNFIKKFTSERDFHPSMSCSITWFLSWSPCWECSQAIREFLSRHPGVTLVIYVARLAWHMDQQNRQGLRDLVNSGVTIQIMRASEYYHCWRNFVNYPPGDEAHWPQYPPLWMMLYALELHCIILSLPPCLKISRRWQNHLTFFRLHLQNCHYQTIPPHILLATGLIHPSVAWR
UniProt P41238, whole entry W121H: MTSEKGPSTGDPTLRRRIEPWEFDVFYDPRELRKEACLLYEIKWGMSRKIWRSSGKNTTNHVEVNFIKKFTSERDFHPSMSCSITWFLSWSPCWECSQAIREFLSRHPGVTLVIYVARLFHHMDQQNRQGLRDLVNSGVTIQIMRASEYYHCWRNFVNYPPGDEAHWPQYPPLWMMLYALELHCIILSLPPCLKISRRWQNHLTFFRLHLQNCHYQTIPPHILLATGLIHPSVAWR

What was measured:
Assay in all cases: EMSA
[1] = molecular target: MBP-APO1 W121Q (aggregated form) (human) (UniProt P41238); details: range given for four mutants on DNA and RNA, 50 nM nucleic acid, 20 mM HEPES, 50 mM NaCl, 5 mM DTT, 10% glycerol (0.4 U RNase inhibitor for RNA), pH not stated for EMSA (HEPES pH 7.5 in protein buffers), recombinant protein, residues 1-236, protein details: MBP (N-terminal fusion)
[2] = molecular target: MBP-APO1 WT (aggregated form) (human) (UniProt P41238); details: no A1CF; 50 nM nucleic acid, 20 mM HEPES, 50 mM NaCl, 5 mM DTT, 10% glycerol (0.4 U RNase inhibitor for RNA), pH not stated for EMSA (HEPES pH 7.5 in protein buffers); recombinant protein; residues 1-236; protein details: MBP (N-terminal fusion, pMAL-C5X)
[3] = molecular target: MBP-APO1 W121A (aggregated form) (human) (UniProt P41238); details: range given for four mutants on DNA and RNA, 50 nM nucleic acid, 20 mM HEPES, 50 mM NaCl, 5 mM DTT, 10% glycerol (0.4 U RNase inhibitor for RNA), pH not stated for EMSA (HEPES pH 7.5 in protein buffers), recombinant protein, residues 1-236, protein details: MBP (N-terminal fusion)
[4] = molecular target: MBP-APO1 F120A (aggregated form) (human) (UniProt P41238); details: range given for four mutants on DNA and RNA, 50 nM nucleic acid, 20 mM HEPES, 50 mM NaCl, 5 mM DTT, 10% glycerol (0.4 U RNase inhibitor for RNA), pH not stated for EMSA (HEPES pH 7.5 in protein buffers), recombinant protein, residues 1-236, protein details: MBP (N-terminal fusion)
[5] = molecular target: MBP-APO1 W121H (aggregated form) (human) (UniProt P41238); details: range given for four mutants on DNA and RNA, 50 nM nucleic acid, 20 mM HEPES, 50 mM NaCl, 5 mM DTT, 10% glycerol (0.4 U RNase inhibitor for RNA), pH not stated for EMSA (HEPES pH 7.5 in protein buffers), recombinant protein, residues 1-236, protein details: MBP (N-terminal fusion)
[6] = molecular target: MBP-APO1 mXT (dimeric form) M46A,R48S,I80T,W121A,L173A,W199A,F205A,del1-14 (human) (UniProt P41238); details: slightly stronger than WT, Kd only plotted; 50 nM nucleic acid, 20 mM HEPES, 50 mM NaCl, 5 mM DTT, 10% glycerol (0.4 U RNase inhibitor for RNA), pH not stated for EMSA (HEPES pH 7.5 in protein buffers); recombinant protein; residues 15-236; protein details: MBP (N-terminal fusion); label: 5' FAM; single-stranded DNA
[7] = molecular target: MBP-APO1 mXT (aggregated form) M46A,R48S,I80T,W121A,L173A,W199A,F205A,del1-14 (human) (UniProt P41238); details: slightly stronger than WT, Kd only plotted; 50 nM nucleic acid, 20 mM HEPES, 50 mM NaCl, 5 mM DTT, 10% glycerol (0.4 U RNase inhibitor for RNA), pH not stated for EMSA (HEPES pH 7.5 in protein buffers); recombinant protein; residues 15-236; protein details: MBP (N-terminal fusion); label: 5' FAM; single-stranded DNA
[8] = label: 5' FAM, single-stranded DNA

Row | Sequence | binding result ([1]; no A1CF) | Kd [2] [nM] | binding result ([3]; no A1CF) | binding result ([4]; no A1CF) | binding result ([5]; no A1CF) | binding result [6] | binding result [1, 8] | binding result [7] | binding result [3, 8] | binding result [4, 8] | binding result [5, 8]
1 | GGAUAUAUGAUACAAUUUGAUCAGUAUAUUAAAGAUAGUUAUGAUUUACAUGAUU [APOB RNA 55 nt] | binds | 230 | binds | binds | binds | – | – | – | – | – | –
2 | ATTATTATTATTCAAATTTATTTATTTATTTATGGTGTTTGGTGTGGTTG [FAM-50 ssDNA] | – | – | – | – | – | binds | binds | binds | binds | binds | binds
